Source: PubChem BioAssay AID248 (DTP/NCI, 2004)
The list does not hold the whole screen: it gathers tests that were run many times, whatever their T/C, doses with no T/C, and many T/C values between a quarter and a half above the control. Further doses and runs are listed elsewhere. T/C is the treated group as % of the vehicle group. Some doses have a count of surviving animals in place of a T/C: the source holds a T/C of zero for them, seemingly a mark for toxic or unscored doses. Some doses without a T/C left all or most animals alive at the check, yet need not have been tolerated: survival well below the control is almost never listed, so the zero probably covers shortened survival too. Counts of survivors are from the toxicity check (mostly the fifth day) where no day follows; animals may have died later. Schedule codes are those of the source, read here as Q, the interval in days (D) or hours (H), X, the number of doses. Some schedule codes hold Z or #, which are not explained here. Where survival is the endpoint, this PubChem deposit counts one and a half times the control or more as active, and values a quarter to a half above the control carry no call in these data; other NCI protocols may use other cut-offs. Some entries were tested several times; their values stand side by side, smallest first. Additions like (4×) count equal records among those shown.

Tested on: L1210 leukemia ip in BDF1 mice, survival T/C
Test: NCI In Vivo Anticancer Drug Screen. Data for tumor model L1210 Leukemia (intraperitoneal) in B6D2F1 (BDF1) mice
Conditions: T/C endpoint: mean survival time, higher T/C = longer survival
[1] = dose: 100.0 mg/kg/injection, schedule: Q01DX001 (ip), vehicle: carboxymethylcellulose (CMC)
[2] = dose: 300.0 mg/kg/injection, schedule: Q01DX001 (ip), vehicle: saline
[3] = dose: 400.0 mg/kg/injection, schedule: Q01DX001 (ip), vehicle: carboxymethylcellulose (CMC)
[4] = dose: 200.0 mg/kg/injection, schedule: Q01DX009 (ip), vehicle: saline
[5] = dose: 400.0 mg/kg/injection, schedule: Q01DX001 (ip), vehicle: saline
[6] = dose: 400.0 mg/kg/injection, schedule: Q01DX009 (ip), vehicle: saline
[7] = dose: 400.0 mg/kg/injection, schedule: Q04DX003 (ip), vehicle: saline
[8] = dose: 200.0 mg/kg/injection, schedule: Q01DX001 (ip), vehicle: carboxymethylcellulose (CMC)
[9] = dose: 400.0 mg/kg/injection, schedule: Q04DX003 (ip), vehicle: Klucel (hydroxypropylcellulose) (HPC)
[10] = dose: 100.0 mg/kg/injection, schedule: Q04DX002 (ip), vehicle: saline with Tween-80

COc1cc(C=Nc2ccc(-c3nc(Cc4ccccc4)sc3C)cc2)ccc1N(CCCl)CCCl
T/C (dose: 13.0 mg/kg/injection, schedule: Q01DX001 (ip), vehicle: carboxymethylcellulose (CMC)): 134 % of control | T/C (dose: 13.0 mg/kg/injection, schedule: Q01DX009 (ip), vehicle: Klucel (hydroxypropylcellulose) (HPC)): 133 % of control | T/C (dose: 13.0 mg/kg/injection, schedule: Q01DX009 (ip), vehicle: carboxymethylcellulose (CMC)): 148 % of control | T/C (dose: 20.0 mg/kg/injection, schedule: Q01DX001 (ip), vehicle: carboxymethylcellulose (CMC)): 148 % of control | T/C (dose: 20.0 mg/kg/injection, schedule: Q01DX009 (ip), vehicle: Klucel (hydroxypropylcellulose) (HPC)): 138 % of control | T/C (dose: 30.0 mg/kg/injection, schedule: Q01DX001 (ip), vehicle: carboxymethylcellulose (CMC)): 140 % of control | survivor count (dose: 30.0 mg/kg/injection, schedule: Q01DX009 (ip), vehicle: carboxymethylcellulose (CMC)): 5 of 6 | T/C (dose: 45.0 mg/kg/injection, schedule: Q01DX009 (ip), vehicle: saline): 132 % of control | T/C (dose: 60.0 mg/kg/injection, schedule: Q01DX009 (ip), vehicle: saline): 135 % of control | T/C (dose: 66.0 mg/kg/injection, schedule: Q01DX001 (ip), vehicle: Klucel (hydroxypropylcellulose) (HPC)): 131 % of control | T/C (dose: 66.0 mg/kg/injection, schedule: Q01DX001 (ip), vehicle: carboxymethylcellulose (CMC)): 135 % of control | T/C (dose: 100.0 mg/kg/injection, schedule: Q01DX001 (ip), vehicle: Klucel (hydroxypropylcellulose) (HPC)): 138 % of control | T/C [1]: 138 and 140 % of control | survivor count (dose: 150.0 mg/kg/injection, schedule: Q01DX001 (ip), vehicle: Klucel (hydroxypropylcellulose) (HPC)): 5 of 6 | T/C (dose: 200.0 mg/kg/injection, schedule: Q01DX001 (ip), vehicle: saline): 138 % of control | survivor count [2]: 4 of 6 | survivor count [3]: 0 of 6

CN1CSCSC1
survivor count [4]: 0 of 6

COc1ccccc1CN1CCCN(Cc2ccccc2OC)C1c1ccccn1
survivor count [5]: 2 of 4

COc1ccc(-c2csc(-c3ccccc3)n2)cc1N=Cc1ccc(N(CCCl)CCCl)c(OC)c1
T/C (dose: 2.2 mg/kg/injection, schedule: Q01DX009 (ip), vehicle: saline): 129 % of control | T/C (dose: 3.3 mg/kg/injection, schedule: Q01DX009 (ip), vehicle: saline): 129 % of control | T/C (dose: 5.0 mg/kg/injection, schedule: Q01DX009 (ip), vehicle: acetone): 134 % of control | T/C (dose: 13.0 mg/kg/injection, schedule: Q01DX015 (ip), vehicle: carboxymethylcellulose (CMC)): 130 % of control | T/C (dose: 20.0 mg/kg/injection, schedule: Q01DX015 (ip), vehicle: carboxymethylcellulose (CMC)): 136 % of control | T/C (dose: 44.0 mg/kg/injection, schedule: Q01DX015 (ip), vehicle: carboxymethylcellulose (CMC)): 131 % of control | T/C (dose: 44.4 mg/kg/injection, schedule: Q01DX001 (ip), vehicle: carboxymethylcellulose (CMC)): 125 % of control | T/C (dose: 66.6 mg/kg/injection, schedule: Q01DX001 (ip), vehicle: carboxymethylcellulose (CMC)): 127 % of control | survivor count (dose: 80.0 mg/kg/injection, schedule: Q01DX009 (ip), vehicle: acetone): 5 of 6 | T/C [1]: 131 % of control | T/C (dose: 100.0 mg/kg/injection, schedule: Q01DX001 (sc), vehicle: carboxymethylcellulose (CMC)): 131 % of control | T/C (dose: 150.0 mg/kg/injection, schedule: Q01DX001 (ip), vehicle: carboxymethylcellulose (CMC)): 137 % of control | T/C (dose: 200.0 mg/kg/injection, schedule: Q01DX001 (sc), vehicle: carboxymethylcellulose (CMC)): 129 % of control | T/C (dose: 400.0 mg/kg/injection, schedule: Q01DX001 (sc), vehicle: carboxymethylcellulose (CMC)): 129 % of control

CC(=O)Nc1cc(Cl)cc2c1-c1c(Cl)cc(Cl)cc1C2=O
survivor count [4]: 3 of 6 | survivor count [6]: 0 of 6

CCOC(=O)c1ccc(N=NC2C(=O)N(c3ccccc3)N=C2C)cc1 (stereo not given)
survivor count [5]: 0 of 4

CN(C)/N=C/c1ccccn1
survivor count [7]: 0 of 6

COc1ccccc1N=Nc1c(O)n(-c2ccccc2C)c(=S)n(-c2ccc(C)cc2)c1=O
survivor count (dose: 400.0 mg/kg/injection, schedule: Q01DX001 (ip), vehicle: Klucel (hydroxypropylcellulose) (HPC)): 3 of 6

Nc1ncc(CBr)c(N)n1
survivor count [7]: 3 of 6

FC(F)(F)c1ccc2c(c1)N(CCCN1CCN(CCCl)CC1)c1ccccc1S2
survivor count (dose: 6.25 mg/kg/injection, schedule: Q01DX009 (ip), vehicle: saline): 6 of 6 | survivor count (dose: 25.0 mg/kg/injection, schedule: Q01DX009 (ip), vehicle: saline): 5 of 6 | survivor count (dose: 100.0 mg/kg/injection, schedule: Q04DX003 (ip), vehicle: saline): 5 of 6 | survivor count (dose: 200.0 mg/kg/injection, schedule: Q04DX003 (ip), vehicle: saline): 2 of 6 | survivor count [7]: 0 of 6

COc1ccc(Nc2cccc(Cl)c2)c(C(=O)O)c1
survivor count [2]: 3 of 6

Cc1ccc(S(=O)(=O)OCCN(CCOS(=O)(=O)c2ccc(C)cc2)c2cccc(F)c2)cc1
T/C [8]: 110 (2×) and 136 % of control | survivor count [8]: 2 of 4

CC12CC3CC(C)(C1)CC(N)(C3)C2
survivor count [1]: 2 of 4 | survivor count [8]: 0 of 4 | survivor count [3]: 0 of 4

Nc1ccc2cc(S(=O)(=O)O)cc(S(=O)(=O)O)c2c1 (tested in a mixture with another compound)
survivor count (dose: 115.0 mg/kg/injection, schedule: Q01DX Z (ip), vehicle: saline): 6 of 6

CCOC(=O)NO
T/C (dose: 200.0 mg/kg/injection, schedule: Q01DX Z (ip), vehicle: carboxymethylcellulose (CMC)): 140 % of control | T/C (dose: 270.0 mg/kg/injection, schedule: Q01DX009 (ip), vehicle: saline): 128 % of control | T/C [6]: 138 % of control | T/C (dose: 400.0 mg/kg/injection, schedule: Q01DX Z (ip), vehicle: carboxymethylcellulose (CMC)): 140 % of control | T/C (dose: 900.0 mg/kg/injection, schedule: Q01DX009 (ip), vehicle: saline): 128 % of control

Cc1ccc([N+](=O)[O-])c(O)c1[N+](=O)[O-]
survivor count (dose: 400.0 mg/kg/injection, schedule: Q01DX009 (ip), vehicle: Klucel (hydroxypropylcellulose) (HPC)): 2 of 6

NC(N)=NCCCCCC(=O)Oc1ccc([N+](=O)[O-])cc1
survivor count [6]: 0 of 6 | survivor count [7]: 0 of 6

Nc1ccccc1O
survivor count (dose: 100.0 mg/kg/injection, schedule: Q04DX003 (ip), vehicle: Klucel (hydroxypropylcellulose) (HPC)): 2 of 3 | survivor count (dose: 200.0 mg/kg/injection, schedule: Q04DX003 (ip), vehicle: Klucel (hydroxypropylcellulose) (HPC)): 0 of 3 | survivor count [9]: 0 of 3

NC(=O)CC1=NCCc2ccccc21
survivor count [5]: 0 of 4

Cc1n[nH]c(=S)n1C
survivor count [7]: 0 of 6

Cc1ccc[n+](CCc2c[nH]c3ccccc23)c1
survivor count (dose: 200.0 mg/kg/injection, schedule: Q04DX003 (ip), vehicle: saline with Tween-80): 0 of 6 | survivor count (dose: 400.0 mg/kg/injection, schedule: Q04DX003 (ip), vehicle: saline with Tween-80): 0 of 6

O=C(NNC(=O)OCC(Cl)(Cl)Cl)OCC(Cl)(Cl)Cl
survivor count [10]: 2 of 3

F[C](F)(F)[Hg][Br]
survivor count (dose: 25.0 mg/kg/injection, schedule: Q04DX002 (ip), vehicle: saline with Tween-80): 0 of 3 | survivor count (dose: 50.0 mg/kg/injection, schedule: Q04DX002 (ip), vehicle: saline with Tween-80): 0 of 3 | survivor count [10]: 0 of 3

Cc1c(Cl)cccc1NC(=O)Nc1cccc(C(F)(F)F)c1
survivor count (dose: 200.0 mg/kg/injection, schedule: Q01DX001 (ip), vehicle: saline with Tween-80): 6 of 6

O=c1[nH]cc(COCC(F)(F)F)c(=O)[nH]1
survivor count (dose: 400.0 mg/kg/injection, schedule: Q01DX005 (ip), vehicle: other): 0 of 4

CCCCCCCCCCCCCCCCCSc1cccc(C)c1
survivor count [9]: 6 of 6

S=c1[nH]c2[nH]cnc(=S)c2[nH]1
survivor count [5]: 3 of 6

CCCCC(/C=N\NC(=O)c1ccc[n+](C)c1)CC (stereo not given)
survivor count [4]: 0 of 3
